## Library screen at single concentrations

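Whole-parasite assay of Trypanosoma brucei over 72 hours; the read-out is not stated. Compounds at 30 µM. The record gives no direction; compounds that gave an IC50 in retests scored well above the rest, so higher reads as stronger inhibition. Values scatter widely below zero; nearly all retest evidence comes from the higher of the two concentrations used. About 64,000 compounds were tested under these conditions; 1.5% (about 940) showed 50% or more at least once.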

The filed quantity is “Percent Effect” (%). How 0% and 100% were set is not recorded. Most values in the screen are low, and negative values occur. The compounds are a random part of those screened.

| # | Compound | effect |
|---|---|---|
| 1 | `CCS(=O)(=O)c1ccc(N2CCC(NC(=O)CC3CCCC3)CC2)cc1` | 10 |
| 2 | `CCC(=O)NC(CC(C)C)c1cccs1` (configuration not stated) | 7.462 |
| 3 | `CC(Cn1cncn1)NC(=O)NCC(C)(C)c1ccc(F)cc1` (configuration not stated) | 3.181 |
| 4 | `CC(C)c1noc(CCCC(=O)NC(C)c2ccccn2)n1` (configuration not stated) | 4.038 |
| 5 | `Cc1ccnc(NC(=O)c2cccc(OCc3nnnn3C)c2)c1` | 2.326 |
| 6 | `CC(C)C(O)CNC(=O)CCCc1ccccn1` (configuration not stated) | 4.732 |
| 7 | `O=C1CN(Cc2cn(CC3CCCN(C4CCSCC4)C3)nn2)CCN1` (configuration not stated) | -153.6 |
| 8 | `O=C(O)C(F)(F)F.[H][C@@]12CCN(Cc3c(C)noc3C)C[C@]1(C(=O)N(C)C)CCO2` | -2.272 |
| 9 | `Cc1c(C(=O)NC(C)C(C)C)nnn1-c1cccc2c1CCN(C)C2` (configuration not stated) | 10.67 |
| 10 | `[H][C@]12C[C@@H](CN(C)C)N(CC3CC3)[C@@]1([H])CCN(Cc1nccn1C)C2` | -12.03 |
| 11 | `CC(C)c1cc(NCC(O)c2ccc(F)cc2)n2nccc2n1` (configuration not stated) | 6.535 |
| 12 | `O=C1NCCCc2[nH]c(-c3nc(C4CC4)no3)nc21` | 14.44 |
| 13 | `Cc1ccc(N(C)C2CCCN(C(=O)Nc3ccc(F)cc3F)C2)cc1` (configuration not stated) | -0.195 |
| 14 | `CC(=O)N1CCc2[nH]nc(C(=O)N3CCOCC3)c2C1` | -14.97 |
| 15 | `CN(C)C(=O)Cn1cc(C(=O)N2CCCc3cccc(F)c32)nn1` | -46.92 |
| 16 | `CNCCNc1ccc(-c2nc(-c3cccc(OC)c3OC)no2)cn1` | 17.24 |
| 17 | `CC(=O)N1CC(=O)N(c2ccccc2)CC12CCN(Cc1nccs1)C2.O=C(O)C(F)(F)F` (configuration not stated) | -24.86 |
| 18 | `O=C(O)C(F)(F)F.O=C(O)C(F)(F)F.O=C(O)C(F)(F)F.[H][C@]12CC(=O)N(Cc3cccc(C)n3)[C@@]1([H])CCN2Cc1ccccn1` | -8.046 |
| 19 | `CS(=O)(=O)N1CCc2[nH]cnc2C12CCN(C(=O)c1ccccc1)CC2` | -35.61 |
| 20 | `[H][C@]12CCCCN1CCC[C@H]2CCC(=O)NCc1cc(O)nc(C)n1` | 1.845 |
| 21 | `O=C([C@H]1CCCO1)N1CCC2(CC1)Cc1ccccc1CNC2=O` | 2.104 |
| 22 | `Cc1ccc(C2CSCCN2C(=O)C2=CCCC2)o1` (configuration not stated) | 14.9 |
| 23 | `O=C(O)C(F)(F)F.[H][C@]12CCC(=O)N(c3cccnc3)[C@@]1([H])CCN2C(=O)Cc1cccs1` | -19.93 |
| 24 | `CCn1c(C2CCCN(Cc3ccc(F)cc3Cl)C2)nn(C)c1=O` (configuration not stated) | -50.96 |
| 25 | `O=C(c1ccc2c(c1)CCC2)N1CCC(c2n[nH]c(C3CC3)n2)CC1` | 1.577 |
| 26 | `COCC(=O)Nc1cnc(N2CCOCC2)nc1` | -32.02 |
| 27 | `CCc1nc(CN2CCOC(Cn3nc(C)nc3C)C2)no1` (configuration not stated) | -31.74 |
| 28 | `O=S(=O)(c1ccccc1F)N1CCCC(c2nccs2)C1` (configuration not stated) | -17.67 |
| 29 | `COc1cc(CN2C[C@H](OC)[C@]3(CCCO3)C2)ccc1F` | -40.7 |
| 30 | `Cl.OC1(c2ccc(F)cc2)CCN(Cc2ccccc2N2CCCC2)CC1` | -34.29 |
| 31 | `O=C(O)C(F)(F)F.[H][C@]12CCN(C(=O)c3ccc4ncccc4c3)C[C@@]1([H])OCCN(C(C)=O)C2` | -5.705 |
| 32 | `CCC(=O)N1CCOC(c2cc(Nc3nncs3)cc(C)n2)C1` (configuration not stated) | -5.019 |
| 33 | `CCc1noc(C(C)N2CCOCC2)n1` (configuration not stated) | -1.691 |
| 34 | `COCc1cc(CN(C)C(=O)CCC(=O)Nc2cc(C)ccc2F)n[nH]1` | -34.29 |
| 35 | `CCCN(CCN(C)C)C(=O)Cc1cn2ccsc2n1` | -22.7 |
| 36 | `CN(C)S(=O)(=O)N1CCC(c2ccncc2)CC1` | -2.697 |
| 37 | `Cc1cc(-c2cnc(N3CCNC(=O)C3)nc2-c2ccncc2)on1` | -31.5 |
| 38 | `CC(C)c1noc(CS(=O)(=O)CC(=O)NCc2ccccc2)n1` | -10.66 |
| 39 | `[H][C@]12CC[C@]([H])(CN(C(=O)CC(F)(F)F)C1)N(Cc1ccccc1)C2=O` | 0.2795 |
| 40 | `Cc1noc(C)c1CN1Cc2cnn(C)c2C(COCC2CC2)C1.O=C(O)C(F)(F)F.O=C(O)C(F)(F)F` (configuration not stated) | -27.69 |
| 41 | `CN(C)C(=O)CN1CCC2(C1)CN(CC1CCOC1)C2.O=C(O)C(F)(F)F.O=C(O)C(F)(F)F` (configuration not stated) | -78.39 |
| 42 | `CNc1ncc2c(n1)CN(c1cccc(OC)c1)C2=O` | 5.042 |
| 43 | `Brc1cnc(NCCCOC2CCOCC2)nc1` | -23.64 |
| 44 | `CN(CC(=O)N1CCCC1)Cc1nc2c(cnn2C)c(=O)[nH]1` | 3.007 |
| 45 | `COc1ccc(-c2nnsc2C(=O)N2CCSCC2)cc1` | 2.428 |
| 46 | `Cc1c[nH]nc1C1CN(Cc2cnn(-c3ccccc3C(=O)O)c2)C1` | 6.427 |
| 47 | `COc1cccc([C@@H]2CCN(Cc3[nH]nc(C)c3Cl)C[C@H]2O)c1` | -5.308 |
| 48 | `Cn1ccc2c(ccn2CC(=O)Nc2ccc(Br)cc2)c1=O` | -2.032 |
| 49 | `O=C(NCc1ccncc1)c1nc2c(o1)CN(C(=O)c1cccnc1)C2.O=C(O)C(F)(F)F.O=C(O)C(F)(F)F` | 5.141 |
| 50 | `COc1ccc(C(=O)N2CCCC(n3cncn3)C2)nn1` (configuration not stated) | -19.74 |
| 51 | `[H][C@]12CCC[C@@]1(COc1cccnc1)CN(Cc1cnn(C)c1)C2` | -81.4 |
| 52 | `CCn1cc(S(=O)(=O)NCC(OC)c2cccc(Cl)c2)cn1` (configuration not stated) | -35.57 |
| 53 | `NC(=O)CN1CCC(NC2CCCCc3ccccc32)CC1` (configuration not stated) | -36.49 |
| 54 | `CC(C)n1ccnc1CN1CCCN(C(=O)c2cscn2)CC1` | 4.092 |
| 55 | `CN(CCc1ccccc1)c1cnn(CC2COCCO2)c(=O)c1` (configuration not stated) | -61.81 |
| 56 | `CN(C)S(=O)(=O)N1CCCC(c2nccn2Cc2cccnc2)C1` (configuration not stated) | -6.614 |
| 57 | `CN1CCCC1c1ccc(C(=O)N2CCc3ccccc3C2)s1` (configuration not stated) | 7.892 |
| 58 | `O=c1cc(Cn2cncn2)nc2n1CCCN(Cc1ccsc1)C2` | -11.04 |
| 59 | `Cc1cc(-c2cnn(CCNC(=O)CCn3cccn3)c2C2CC2)on1` | -6.745 |
| 60 | `[H][C@]12OCCN(C(=O)COc3ccccc3)[C@@]1([H])CC[C@@H]2OCC` | -33.73 |
| 61 | `Cc1cc(NCCCC(F)(F)F)n2nc(C)cc2n1` | -9.273 |
| 62 | `COC(=O)c1ccc2ccn(CC3CCNC3)c(=O)c2c1` (configuration not stated) | -99.85 |
| 63 | `COc1ccc(O[C@H]2COCCN(Cc3cccc4c3OCO4)C2)cc1` | -40.62 |
| 64 | `CCN(CC)S(=O)(=O)c1ccc(CNC(=O)c2cc(C)on2)cc1` | 58.42 |
| 65 | `Cc1ccc(C)c(NC(=O)Cn2nc(C)c(C#N)c2N)c1` | -15.55 |
| 66 | `O=C(CCc1ccc(F)cc1)NS(=O)(=O)c1ccc2c(c1)OCCO2` | -0.7301 |
| 67 | `COC(=O)c1ccn(COc2ccccc2Cl)n1` | -12.99 |
| 68 | `O=C(Cc1noc(C(=O)NCCO)n1)Nc1cccc(C(F)(F)F)c1` | -3.082 |
| 69 | `CC(NS(=O)(=O)N(C)C(C)C)C(=O)N(C)C` (configuration not stated) | -51.83 |
| 70 | `O=C([C@@H]1Cc2[nH]cnc2CN1Cc1cc2ccccc2o1)N1CCCC1` | -60.71 |
| 71 | `Cc1ncc(CC(=O)N2CCCCC2CCN2CCCC2)c(=O)[nH]1` (configuration not stated) | -7.278 |
| 72 | `O=C(O)C(F)(F)F.O=C(O)C(F)(F)F.[H][C@@]12CCC(=O)N(c3ccccc3)[C@]1([H])CCN2Cc1ccncc1` | 22.44 |
| 73 | `O=C(CSc1nnc[nH]1)NCc1sccc1Br` | -33.51 |
| 74 | `O=C(NC1CC1)N1CCOCC2(C1)CN(c1ccccc1)C(=O)CO2` (configuration not stated) | -6.351 |
| 75 | `CN(CC(=O)NC(c1ccc(F)cc1)C(F)(F)F)S(C)(=O)=O` (configuration not stated) | -12.51 |

The values are deposited in ChEMBL (CHEMBL3988442, “University of Dundee, Small-Polar-MMV Screening Library” (2021)).